Measurements taken from US5124314A, “Pharmaceutical compositions containing amylin” (Amylin Pharmaceuticals, Inc., priority 1987, dated 1992).
Entries after “also recorded” stand apart in the source; their conditions may differ. Not every detail of the peptide structures is certain; ends, links or a residue may be inferred.

Tested on: isolated rat soleus muscles
Assay: rate of glycogen synthesis (14C-glucose incorporation into glycogen) in isolated rat soleus muscles
Type: cell-based
Conditions: isolated rat soleus muscle; insulin 1 to 100 microunits per ml (basal and insulin-stimulated); amylin 120 nanomoles per liter or 15 micromoles per liter; p<0.05 at 1 and 100 microunits per ml

CC[C@H](C)[C@H](NC(=O)[C@H](C)NC(=O)CNC(=O)[C@H](Cc1ccccc1)NC(=O)[C@H](CC(N)=O)NC(=O)[C@H](CC(N)=O)NC(=O)[C@H](CO)NC(=O)[C@H](CO)NC(=O)[C@H](Cc1c[nH]cn1)NC(=O)[C@@H](NC(=O)[C@H](CC(C)C)NC(=O)[C@H](Cc1ccccc1)NC(=O)[C@H](CC(N)=O)NC(=O)[C@H](C)NC(=O)[C@H](CC(C)C)NC(=O)[C@H](CCCNC(=N)N)NC(=O)[C@H](CCC(N)=O)NC(=O)[C@@H](NC(=O)[C@H](C)NC(=O)[C@@H]1CSSC[C@H](NC(=O)[C@@H](N)CCCCN)C(=O)N[C@@H](CC(N)=O)C(=O)N[C@@H]([C@@H](C)O)C(=O)N[C@@H](C)C(=O)N[C@@H]([C@@H](C)O)C(=O)N1)[C@@H](C)O)C(C)C)C(=O)N[C@@H](CC(C)C)C(=O)N[C@@H](CO)C(=O)N[C@@H](CO)C(=O)N[C@H](C(=O)N[C@@H](CC(N)=O)C(=O)N[C@H](C(=O)NCC(=O)N[C@@H](CO)C(=O)N[C@@H](CC(N)=O)C(=O)N[C@H](C(=O)N[C@@H](Cc1ccc(O)cc1)C(N)=O)[C@@H](C)O)C(C)C)[C@@H](C)O [amylin]
rate of glycogen synthesis: reduces the rate of glycogen synthesis; also recorded: slowed down
